# From paper PMC12040169 (PLOS Biology, 2025)
# The list shows a part of the results.
# System: T1, CTL2-GFP (C. trachomatis L2/434/Bu, GFP-expressing)
# T1 construct: L2/434/Bu, GFP-expressing
# Design: species or system HeLa; Intracellular C. trachomatis growth in HeLa cells, bulk GFP fluorescence relative to DMSO
# Conditions: bulk GFP, single well; 28.5 h, 10 µM; inhibitor
row,Compound,% of control remaining [%]
1,Cc1ccc(C2(C(=O)N3CCC(O)(c4ccccn4)CC3)CC2)cc1 [CBK283754],116.104
2,Cc1nc2ccccn2c1-c1csc(Nc2ccc(C(=O)O)cc2)n1 [CBK261634B],91.3938
3,CCCC(=O)NC(c1ccc(OC)cc1)c1cc(Cl)c2cccnc2c1O (centres unmarked) [CBK293944],133.444
4,CC(C)(C)Nc1nc(OCC#N)nc(N2CCCCC2)n1 [CBK269483],90.3597
5,CCCn1ncc(C(=O)NC(CC)c2cn3cccnc3n2)c1C (centres unmarked) [CBK307640],137.597
6,Cn1nc(-c2ccc(F)cc2)n(-c2ccncc2)c1=O [CBK282294],151.639
7,CCC(Sc1nc(N)cc(=O)[nH]1)C(=O)Nc1ccc2ccccc2c1 (centres unmarked) [CBK265761],77.83
8,OC[C@@H](c1ccccc1)N1CC[C@H]2c3ccc(Br)cc3CC[C@H]21 [CBK017507C],100
9,O=C(c1ccco1)N1CCC2(CC1)Nc1cccnc1-n1cccc12 [CBK284506],90.4155
10,CN(CC(=O)NCc1ccco1)C1CCCCCC1 [CBK254305],142.937
11,Cc1ccccc1-n1c(Cc2ccccc2)nc2c(cnn2-c2ccccc2)c1=O [CBK262310],99.8029
12,Cc1nc(S(=O)(=O)Nc2nc(C(C)C)ns2)cn1C [CBK051323],95.2145
13,CCOc1cc(C)c(C(C)C)cc1S(=O)(=O)NCc1ccccn1 [CBK268080],113.771
14,O=C1c2ccccc2C(=O)N1CCc1nc2c3c4c(sc3ncn2n1)CCCCC4 [CBK268327],142.619
15,CCN(C)C(=O)N1CCN(CCCC(c2ccc(F)cc2)c2ccc(F)cc2)CC1 [CBK024910C],106.68
16,OC1(c2cccnc2F)CCN(Cc2cccc(F)c2)CC1 [CBK284373],111.846
17,O=C1Nc2ccccc2SC1(O)C(F)(F)F (centres unmarked) [CBK025554],102.946
18,O=C(NN1C(=O)c2ccccc2C1=O)c1cc(C(=O)NN2C(=O)c3ccccc3C2=O)cc(N2C(=O)c3ccccc3C2=O)c1 [CBK262100],96.2878
19,CCOc1ccc(C(CC(=O)O)C(=O)O)cc1 (centres unmarked) [CBK261363],92.5414
20,COC(=O)Nc1nc(Cl)cc(Cl)n1 [CBK027433],140.519
21,Brc1ccc(CSc2nnc[nH]2)cc1 [CBK026361],114.105
22,CS(=O)(=O)N1CCN(c2nc(C(F)(F)F)nc3ccsc23)CC1 [CBK304594],99.071
23,CN1CCN(c2ccccc2NC(=S)NC(=O)c2ccc(N3CCCCC3)c([N+](=O)[O-])c2)CC1 [CBK268520C],72.639
24,Cc1ccc(-c2cc(C(=O)Nc3cccnc3)n[nH]2)c(O)c1C [CBK288158],100.684
25,C(=C/c1ccccc1)/C=N/c1ccc2nc(-c3ccc(/N=C/C=C/c4ccccc4)cc3)[nH]c2c1 [CBK261656],100
26,COCCc1nsc(N2CCC(N(C)c3cccnn3)CC2)n1 [CBK304701],111.955
27,CC1CC(C)CN(C(=O)Cn2ncc3cccn3c2=O)C1 (centres unmarked) [CBK283805],136.441

# A few values from the entries so far.
# Entry of CN(CC(=O)NCc1ccco1)C1CCCCCC1 [CBK254305] under % of control remaining [%]: 142.937
# Entry of CN1CCN(c2ccccc2NC(=S)NC(=O)c2ccc(N3CCCCC3)c([N+](=O)[O-])c2)CC1 [CBK268520C] under % of control remaining [%]: 72.639
# Entry of CCC(Sc1nc(N)cc(=O)[nH]1)C(=O)Nc1ccc2ccccc2c1 (centres unmarked) [CBK265761] under % of control remaining [%]: 77.83
# Entry of Cc1nc2ccccn2c1-c1csc(Nc2ccc(C(=O)O)cc2)n1 [CBK261634B] under % of control remaining [%]: 91.3938

# (continued)

row,Compound,% of control remaining [%]
1,C=CCNS(=O)(=O)c1ccc(NC(=O)Nc2ccc(Cl)cc2)cc1 [CBK269315],85.2439
2,COc1ncccc1-c1csc(C2CN3CCCC3CO2)n1 (centres unmarked) [CBK304110],133.238
3,Cc1ccccc1C(=O)Nc1cccc(NC(=O)c2nc[nH]n2)c1 [CBK267108],186.675
4,CNC(=O)c1ccc(-c2cc(OC)c(OC)c(OC)c2)nc1NCC1CC1 [CBK106312],109.422
5,Nc1cccc(-c2ccc(NCc3cc(F)c(F)c(F)c3)nc2)c1 [CBK036985],117.557
6,O=C(O)c1ccc(NC(=O)c2ncn(-c3ccccc3)n2)cc1 [CBK269445],126.647
7,COc1ccc(-c2cnc3[nH]c(=O)n([C@H](C)c4ccccc4)c3n2)c(OC)c1OC [CBK064236],122.59
8,CCOC(=O)Cc1csc(NS(=O)(=O)c2ccc(OC(F)(F)F)cc2)n1 [CBK000852],87.8397
9,O=C(Nc1cccc(NC(=S)NC(=O)c2ccc(Cl)cc2Cl)c1)c1ccccc1F [CBK264828],109.629
10,O=C(COc1ccc(S(=O)(=O)N2CCCCC2)cc1Cl)NCc1ccccn1 [CBK269253],140.593
11,FC(F)(F)c1cccc(-c2cn3ccnc3c(NCc3ccncc3)n2)c1 [CBK066632],87.7054
12,N/C(=N\OCC(=O)Nc1cccc([N+](=O)[O-])c1)c1nonc1N [CBK262044],107.27
13,CCN(CC)CC(c1ccccc1)C(O)c1ccc(OC)cc1 (centres unmarked) [CBK262074C],110.293
14,COc1ccc(NC(=O)CN2CCN(c3ccccc3OC)CC2)c([N+](=O)[O-])c1 [CBK269188],100.554
15,O=C(O)CC(CP(c1ccccc1)c1ccccc1)C(=O)O (centres unmarked) [CBK260931],115.841
16,Cc1ccc(OCc2occc2C(=O)N2CCC(O)(CN(C)C)C2)cc1 (centres unmarked) [CBK307341],135.899
17,Cc1ccc(S(=O)(=O)N2CC[C@H](c3nnc(-c4ccccc4)o3)C2)cc1 [CBK289405],126.459
18,CCOC(=O)CN1CCN(S(=O)(=O)c2cc(Cl)ccc2Cl)CC1 [CBK044628],147.356
19,Cc1cc(=O)nc(SC(C)C(=O)O)[nH]1 (centres unmarked) [CBK264630],100
20,Cc1cnn(CCC(=O)N2CCOC(c3nc(C(C)(C)C)n[nH]3)C2)c1 (centres unmarked) [CBK305336],109.803
21,C(=N\Nc1nnc(-c2ccccc2)c(-c2ccccc2)n1)/c1cccnc1 [CBK262025],130.609
22,CCCCCC1CC(CC(=O)NC(=S)Nc2ccccc2Cl)C(=O)O1 (centres unmarked) [CBK019495],112.955
23,O=C(NCCc1cccs1)NC1CCCc2c1cnn2CCO (centres unmarked) [CBK306324],130.181
24,CN1CCN(c2ccc(NC(=S)NC(=O)c3cc4ccccc4o3)cc2)CC1 [CBK266240],181.877
25,CN(Cc1ccc(N2CCCCC2)cc1)S(=O)(=O)c1ccsc1C(=O)O [CBK295333],159.611
26,Cc1ccc(CN(CC(=O)N2CCCCC2)S(=O)(=O)c2ccc(C)cc2)cc1 [CBK264646],100
27,Cc1nn(C)c(C)c1CC(=O)Nc1cccc(CN2CCCCC2)c1 [CBK304547],83.6789

row,Compound,% of control remaining [%]
1,FC(F)(F)c1ccc(OCCOc2ccccc2)nc1 [CBK115829],125.66
2,C/C(=C\C(=O)Nc1ccc(O)cc1C(=O)O)c1ccccc1 [CBK265125],98.7535
3,O=C(c1ccccc1F)N1CCC(O)(c2ccc(F)cc2)CC1 [CBK281943],160.455
4,O=C1N(CN2CCN(C(c3ccccc3)c3ccccc3)CC2)c2ccccc2C12OCCCO2 [CBK265538],100
5,CCCc1[nH]nc(O)c1CCc1c(F)cccc1Cl [CBK081121],137.937
6,O=C1CO[C@H]2CN(S(=O)(=O)c3ccccc3)C[C@H]2N1c1ccccc1 [CBK289236],131.91
7,COc1ccc(C)cc1NC(=O)CCN1CCN(C)CC1 [CBK264216],130.942
8,NCCNC(=O)c1cc2cc(F)ccc2[nH]1 [CBK107345],114.53
9,Oc1ccc(/C=N/N=C/c2ccc(O)c(O)c2)cc1O [CBK261641],97.1557
10,Cc1ccc(C(=O)NCCCc2ccc(Cl)cc2)c(=O)n1C [CBK281567],127.131
11,O=C(O)CCCC(=O)Nc1ccccc1Br [CBK261322],103.645
12,Cc1ccc(C)c(C2CCCN2C(=O)c2ccc(=O)n(CC(=O)N(C)c3ccccc3)c2)c1 (centres unmarked) [CBK285654],108.372
13,O=C(NCc1ccccn1)c1ccc(CNS(=O)(=O)c2cccc(C(F)(F)F)c2)cc1 [CBK267291],149.983
14,O=C(c1ccc2c(c1)ncn2CCO)N1CCC(c2ccccc2F)C1 (centres unmarked) [CBK307075],121.49
15,C[S+]([O-])CCNC(=O)Cn1c(-c2cccs2)cc2cccnc21 (centres unmarked) [CBK282556],111.557
16,CN1CCN(c2nccnc2OCC2COc3ccccc3O2)CC1 (centres unmarked) [CBK003899C],129.684
17,Cc1ccc2[nH]c(=O)c(CNc3ccc4[nH]ncc4c3)cc2c1 [CBK281936],135.91
18,CC(C)c1ccc(S(=O)(=O)NCCC#N)cc1 [CBK044722],83.2771
19,O=C(CN1C(=O)CSc2ccccc21)Nc1ccccc1C(=O)N1CCOCC1 [CBK267343],133.147
20,O=C(NCc1cccs1)c1ccccc1-n1cccc1 [CBK149584],104.269
21,Cc1cc(C)nc(Nc2n[nH]c(-c3ccccc3Cl)n2)n1 [CBK288167],117.573
22,OCCCNC(=S)Nc1ccc(Br)cc1Cl [CBK086487],123.795
23,O=C(Cc1c[nH]c2ccccc12)N1CCC2(CCCN(C(=O)c3c(F)cccc3F)C2)C1 (centres unmarked) [CBK131605],106.992
24,O=C(Nc1ccccc1)[C@H]1O[C@H](CCN2CCN(c3ccccc3)CC2)CC[C@@H]1O [CBK288725],119.63
25,CS(=O)(=O)c1ccc(-c2cnc3nc(N)ccc3c2)cc1 [CBK061916],106.523
26,Cc1ccc(-c2n[nH]c(=S)n2CC(=O)N(C)Cc2ccc(N3CCOCC3)cc2)cc1 [CBK297908],164.601
